For 2 sequences, functional effect results are on record in patent US20060134746.

For at least one entry, the source does not settle the construct or the ends of the probe.

What all share (assay): activity in cells
In data set [1] the target is azobenzyl-PheRS (Methanococcus jannaschii) (UniProt Q57834). Particulars: myoglobin-75TAG amber suppression in E. coli only with 1 mM azobenzyl-Phe; protein in cells.
The target in data set [2] is C8RS (1G8) (Escherichia coli) (UniProt P07813). Particulars: hSOD-33TAG amber suppression in yeast only with 1 mM alpha-aminocaprylic acid; protein in cells.
In data set [3] the target is OMeYRS (3A7) (Escherichia coli) (UniProt P07813). The conditions noted are these: hSOD-33TAG amber suppression in yeast only with 1 mM O-methyl tyrosine; protein in cells.
The target of data set [4] is nbCRS (3H11) (Escherichia coli) (UniProt P07813). The conditions noted are these: hSOD-33TAG amber suppression in yeast only with 1 mM o-nitrobenzyl cysteine; protein in cells.

“CCGGCGGUAGUUCAGCAGGGCAGAACGGCGGACUCUAAAUCCGCAAGGCGCUGGUUCAAAUCCGGCUCGCCGGACCA [mutant MjtRNATyrCUA]”: in data set [1], the functional effect result is “active”.
Turning to “GCCCGGAUGGUGGAAUCGGUAGACACAAGGGAUUCUAAAUCCCUCGGCGUUCGCGCUGUGCGGGUUCAAGUCCCGCUCCGGGUACCA [Leu5CUA amber suppressor tRNA]”, the functional effect entry in data set [2], in data set [3] and in data set [4] was “active” throughout.
